Reference: PubChem BioAssay AID624297 (National Center for Advancing Translational Sciences (NCATS), 2012)
Out of some 340,000 compounds screened, about 6,200 (1.8%) were called active. Inconclusive results, whose numbers are uncertain, are shown with a selection of clear calls. Calls follow the shape of the dose curve; as a rule, active = well fitted activation curve with a large enough effect; inconclusive = small, poorly fitted or top-dose-only effect; inactive = no such curve, though single readings can be large or run the other way. Potencies of inconclusive entries are doubtful fits and often do not repeat.

experiment: A quantitative high throughput screen for small molecules that induce DNA re-replication in SW480 colon adenocarcinoma cells.; also: nearly all actives have a fitted effect of over 55% in size; conditions: Hoechst DNA content imaging, 48 h; series mostly up to 46.1 µM
Outline: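 Hoechst fluorescence of nuclei (405 nm excitation, 500-530 nm emission) measured by plate-scanning imager after 48 hr compound exposure at 37 C; re-replication scored as increased number of nuclei with elevated intensity.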
Potency is read from the fitted curve at half-maximal effect.

SMILES	Potency
CC(=O)c1cccc(NC(=O)c2ccc(S(=O)(=O)N3CC(C)OC(C)C3)cc2)c1 (stereo not drawn)	inconclusive: 2.59 µM [activator, partial curve, poor fit]
O=C(COC(=O)c1n[nH]c2ccccc12)Nc1ccc(Cl)cc1[N+](=O)[O-]	inconclusive: 23.1 µM [activator, single point]
O=C(Nc1c2c(nn1-c1ccc(F)cc1)CS(=O)(=O)C2)c1ccc(Br)o1	inconclusive: 25.9 µM [activator, single point]
CC(C)Cn1c(O)c(N=NC(=O)c2cccc(S(=O)(=O)N3CCCCC3)c2)c2ccccc21	inconclusive: 20.6 µM [activator, single point]
O=C(/C=C/c1cccc2ccccc12)c1ccncc1	inconclusive: 25.9 µM [activator, single point]
O=C1C(=C(I)I)c2ccccc2-c2ccccc21	active: 5.8 µM
CN(C1=C(NC(=O)c2ccccc2)C(=O)c2ccccc2C1=O)C1CCS(=O)(=O)C1 (stereo not drawn)	inconclusive: 14.6 µM [activator, single point]
Cc1ccccc1OCC(=O)NNC(=O)Nc1ccc(Cl)cc1	inconclusive: 29.1 µM [activator, single point]
C[C@@H]1CN([C@H](C)CO)C(=O)c2cccc(NC(=O)Nc3ccc(C(F)(F)F)cc3)c2O[C@H]1CN(C)S(=O)(=O)c1cccs1	inconclusive: 25.9 µM [activator, single point]
COc1ccc(CCNc2ncnc3sc(C)cc23)cc1OC	inactive
Cc1ccc(SCC(=O)c2c(C)nc3cc(C)ccn23)cc1	inactive
C=C1CCC2[C@](C)(CO)[C@H](O)CC[C@@]2(C)[C@@H]1C/C=C1\C(=O)OC[C@H]1O (stereo partly drawn)	inconclusive: 7.31 µM [activator, partial curve, poor fit]
CNc1cc(C)c(C#N)c2nc3ccccc3n12	inconclusive: 25.9 µM [activator, partial curve, poor fit]
COc1cccc(NC(=O)CNS(=O)(=O)c2ccc(Cl)cc2)c1	inactive
Cc1cc(C)c(-c2c(N)cc(Br)cc2Br)c(N)c1	inconclusive: 29.1 µM [activator, single point]
COc1ccc(Nc2nc(N)nc(CSC(=S)N3CCOCC3)n2)cc1	inconclusive: 20.6 µM [activator, single point]
NNC(=O)C1COc2cc3ccccc3cc2O1 (stereo not drawn)	inconclusive: 3.26 µM [activator, single point]
Cc1ccc(NN2C(=O)C=C(c3ccc(Cl)cc3)C2=O)cc1	inconclusive: 20.6 µM [activator, single point]
COCCOC(=O)C1=C(C)NC(C)=C(C(=O)OC/C=C/c2ccccc2)C1c1cccc([N+](=O)[O-])c1 (stereo not drawn)	active: 29.9 µM
C/C(=N\NC(=O)CCc1ccccc1)c1ccc(Br)cc1	inconclusive: 0.731 µM [activator, partial curve, poor fit]
COc1ccc(Cl)cc1NC(=O)CSc1nc(N2CCCCC2)nc(N2CCCCC2)n1	inactive
Cc1ccc(S(=O)(=O)c2nc(S(C)(=O)=O)sc2N2CCC(C)CC2)cc1	inconclusive: 23.1 µM [activator, single point]

Structural class, the compounds so far containing a thiophene ring, fused or not
SMILES	Potency
C[C@@H]1CN([C@H](C)CO)C(=O)c2cccc(NC(=O)Nc3ccc(C(F)(F)F)cc3)c2O[C@H]1CN(C)S(=O)(=O)c1cccs1	inconclusive: 25.9 µM [activator, single point]
COc1ccc(CCNc2ncnc3sc(C)cc23)cc1OC	inactive

Further entries:

SMILES	Potency
O=C(C1CCN(S(=O)(=O)c2ccc(Cl)cc2)CC1)N1CCCC1	inconclusive: 29.1 µM [activator, single point]
COc1ccc(-c2nn(-c3ccccc3)cc2/C=C2/SC(=S)N(CCC(=O)O)C2=O)c(C)c1	inconclusive: 23.1 µM [activator, single point]
O=C(C[C@H]1C/C=C\C[C@@H](Cc2ccc(F)cc2)C(=O)O[C@H](c2ccccc2)CNC1=O)N[C@@H](CO)Cc1ccccc1	inactive
CCOc1ccc2c(ccc(/C=C/c3cc(C)c4cccnc4c3O)[n+]2C)c1	inconclusive: 6.51 µM [activator, partial curve]
CC(=O)Nc1ccc(C(=O)OCc2ccc(F)cc2Cl)cc1	inconclusive: 1.46 µM [activator, partial curve, poor fit]
Cc1cccc(-c2nc(=S)c3c(n2Cc2ccco2)CCCC3)c1	inconclusive: 23.1 µM [activator, single point]
COc1cccc(CN2CCN(CC(=O)Nc3ccccc3Cl)CC2)c1	inactive
Cc1ccnc(Sc2ccc([N+](=O)[O-])cc2[N+](=O)[O-])n1	active: 11.6 µM
Cc1[nH]n(-c2ccccc2)c(=O)c1N=Nc1c(O)cc(S(=O)(=O)N(C)C)c2ccccc12	active: 5.8 µM
COc1ccc(-n2c(CCc3ccccc3)nnc2SCC(=O)NCc2ccccc2)cc1	inactive
CCN(CC(=O)Nc1ccc(NC(C)=O)cc1)C(=O)c1cc([N+](=O)[O-])ccc1Sc1ccc(Cl)cc1	inactive
Cc1occc1C(=O)NCCCc1ccccc1	inconclusive: 29.1 µM [activator, single point]
Cc1ccc(N(C)S(=O)(=O)c2cccc(C(=O)NCC(c3cccs3)N3CCOCC3)c2)cc1 (stereo not drawn)	inconclusive: 14.6 µM [activator, partial curve, poor fit]
CC[n+]1ccc(/C=C2\Sc3ccccc3N2CCCS(=O)(=O)[O-])c2ccccc21	inactive
Cc1ccn2c(=O)c(NC(=O)c3cccs3)c(C)nc2c1	active: 23.1 µM
CN(c1ccc(OCC(=O)OCC(=O)NCc2ccco2)cc1)S(=O)(=O)c1ccc2ccccc2c1	inactive
CCCCc1cc(=O)oc2cc(OCC(=O)NCc3ccccn3)ccc12	inconclusive: 1.16 µM [activator, partial curve, poor fit]
Cc1cccc(OCCNC(=O)c2cncc(Br)c2)c1	active: 0.92 µM
COC(=O)c1ccc(N2C(=O)CC(Sc3n[nH]c(C)n3)C2=O)cc1 (stereo not drawn)	inconclusive: 29.1 µM [activator, partial curve, poor fit]
CC1=CC(c2ccccc2)=NS(=O)(=O)N1	inconclusive: 4.61 µM [activator, full curve, poor fit]
COc1ccc(N/N=C(/N=Nc2nc(C)cc(=O)[nH]2)c2ccccc2)cc1	inconclusive: 1.16 µM [activator, full curve, poor fit]
